# ± gives the standard deviation of the averaged measurements. This is a selection; strong and weak results do not stand in their true shares.
# Experiments:
# Experiment in all cases: NP40-soluble protein abundance relative to vehicle (solubility fold change) (ratio); higher = more soluble protein in presence of ATP
# [1] = target: T1, UniProt Q99640 and related entries
# T1 sequence (whole entry): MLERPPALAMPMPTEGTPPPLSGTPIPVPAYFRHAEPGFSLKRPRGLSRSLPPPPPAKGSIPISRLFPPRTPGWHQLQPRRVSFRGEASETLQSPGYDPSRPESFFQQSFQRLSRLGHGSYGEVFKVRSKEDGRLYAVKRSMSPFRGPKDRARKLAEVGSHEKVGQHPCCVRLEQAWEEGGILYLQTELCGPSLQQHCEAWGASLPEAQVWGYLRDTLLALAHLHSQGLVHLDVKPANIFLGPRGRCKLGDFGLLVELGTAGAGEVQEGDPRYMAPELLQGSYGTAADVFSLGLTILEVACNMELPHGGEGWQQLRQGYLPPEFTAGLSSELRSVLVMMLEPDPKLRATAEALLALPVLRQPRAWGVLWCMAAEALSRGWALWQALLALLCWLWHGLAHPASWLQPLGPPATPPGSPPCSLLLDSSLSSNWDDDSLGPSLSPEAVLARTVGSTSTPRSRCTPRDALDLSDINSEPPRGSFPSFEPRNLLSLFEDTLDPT
# Summary of the method: (§1)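 Jurkat crude lysate (Dounce-homogenised) was treated with eight concentrations from 0.1 to 10 mM for 10 min at room temperature, then 3 min at 37 °C. It was solubilised with 0.8% NP40 and benzonase (60 min, 4 °C) and ultracentrifuged, and the supernatant was TMT-labelled for LC-MS/MS. Intensities were vsn-normalised, and the value is the fold change against the NP40-processed vehicle per replicate, from three independent experiments.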
# [2] = target: T2, UniProt Q99683 and related entries
# T2 sequence (whole entry): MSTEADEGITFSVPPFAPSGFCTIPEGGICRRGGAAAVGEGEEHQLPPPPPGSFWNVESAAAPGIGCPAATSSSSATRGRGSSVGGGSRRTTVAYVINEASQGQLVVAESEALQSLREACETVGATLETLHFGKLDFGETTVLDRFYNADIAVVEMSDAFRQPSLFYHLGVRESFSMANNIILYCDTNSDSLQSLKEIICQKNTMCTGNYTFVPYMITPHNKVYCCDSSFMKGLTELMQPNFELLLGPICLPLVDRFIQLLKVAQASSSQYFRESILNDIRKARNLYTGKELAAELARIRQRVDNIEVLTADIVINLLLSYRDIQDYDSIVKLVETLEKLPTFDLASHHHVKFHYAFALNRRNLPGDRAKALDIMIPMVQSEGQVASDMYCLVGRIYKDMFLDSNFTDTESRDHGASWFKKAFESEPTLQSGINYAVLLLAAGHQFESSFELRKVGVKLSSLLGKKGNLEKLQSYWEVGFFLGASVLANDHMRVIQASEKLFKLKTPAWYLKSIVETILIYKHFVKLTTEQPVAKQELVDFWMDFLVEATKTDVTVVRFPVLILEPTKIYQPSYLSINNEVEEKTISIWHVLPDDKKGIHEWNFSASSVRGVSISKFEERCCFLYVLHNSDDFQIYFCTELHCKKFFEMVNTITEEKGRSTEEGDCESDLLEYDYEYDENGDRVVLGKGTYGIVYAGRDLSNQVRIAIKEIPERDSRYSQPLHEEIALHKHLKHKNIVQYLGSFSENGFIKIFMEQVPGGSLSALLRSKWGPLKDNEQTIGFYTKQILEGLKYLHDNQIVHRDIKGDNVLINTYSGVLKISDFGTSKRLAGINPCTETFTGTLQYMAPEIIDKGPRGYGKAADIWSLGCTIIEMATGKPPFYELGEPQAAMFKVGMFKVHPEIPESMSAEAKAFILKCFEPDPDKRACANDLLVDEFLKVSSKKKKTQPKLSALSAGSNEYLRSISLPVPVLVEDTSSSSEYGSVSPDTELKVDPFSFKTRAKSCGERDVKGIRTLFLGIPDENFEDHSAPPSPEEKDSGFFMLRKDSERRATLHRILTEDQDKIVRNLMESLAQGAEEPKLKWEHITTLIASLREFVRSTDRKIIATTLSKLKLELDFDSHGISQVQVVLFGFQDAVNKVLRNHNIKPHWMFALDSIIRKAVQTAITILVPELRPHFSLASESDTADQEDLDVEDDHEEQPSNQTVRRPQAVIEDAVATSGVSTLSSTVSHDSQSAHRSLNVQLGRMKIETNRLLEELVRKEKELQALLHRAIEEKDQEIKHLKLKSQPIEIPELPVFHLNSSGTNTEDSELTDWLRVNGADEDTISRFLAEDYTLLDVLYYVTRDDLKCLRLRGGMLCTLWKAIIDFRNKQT
# Summary of the method: as §1
# UniProt Q99733-2 = target: T3, UniProt Q99733-2
# T3 sequence (whole entry): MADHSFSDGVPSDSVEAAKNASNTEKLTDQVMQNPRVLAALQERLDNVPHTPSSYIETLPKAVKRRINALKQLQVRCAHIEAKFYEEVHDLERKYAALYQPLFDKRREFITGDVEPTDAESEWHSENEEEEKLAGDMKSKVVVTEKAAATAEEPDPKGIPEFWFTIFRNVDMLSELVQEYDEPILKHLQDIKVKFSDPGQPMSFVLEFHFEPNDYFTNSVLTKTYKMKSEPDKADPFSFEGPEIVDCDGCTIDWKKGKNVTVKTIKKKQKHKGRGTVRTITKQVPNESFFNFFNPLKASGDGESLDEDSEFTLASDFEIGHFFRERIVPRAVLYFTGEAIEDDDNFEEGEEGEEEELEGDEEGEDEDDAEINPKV
# Summary of the method: as §1
# [3] = target: T4, UniProt Q99808 and related entries
# T4 sequence (whole entry): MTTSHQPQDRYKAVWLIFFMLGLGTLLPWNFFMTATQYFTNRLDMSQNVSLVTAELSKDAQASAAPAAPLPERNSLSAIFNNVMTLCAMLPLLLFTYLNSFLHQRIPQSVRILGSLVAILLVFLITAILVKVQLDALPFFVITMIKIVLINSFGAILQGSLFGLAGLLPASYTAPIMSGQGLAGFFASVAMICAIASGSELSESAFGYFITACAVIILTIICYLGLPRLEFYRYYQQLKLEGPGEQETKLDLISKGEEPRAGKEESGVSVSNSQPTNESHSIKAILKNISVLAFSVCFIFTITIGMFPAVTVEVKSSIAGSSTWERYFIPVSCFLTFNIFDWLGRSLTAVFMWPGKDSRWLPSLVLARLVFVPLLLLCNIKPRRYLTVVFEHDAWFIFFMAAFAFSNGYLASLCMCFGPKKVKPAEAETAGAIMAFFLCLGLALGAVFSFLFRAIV
# Summary of the method: as §1
# UniProt Q9BQ61 = target: T5, UniProt Q9BQ61
# T5 sequence (whole entry): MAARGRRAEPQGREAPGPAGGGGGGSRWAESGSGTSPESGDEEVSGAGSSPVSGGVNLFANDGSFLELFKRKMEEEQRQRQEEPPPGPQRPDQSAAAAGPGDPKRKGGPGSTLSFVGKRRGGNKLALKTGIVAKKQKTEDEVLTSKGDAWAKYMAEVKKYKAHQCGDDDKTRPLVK
# Summary of the method: as §1
# UniProt Q9BRT3 = target: T6, UniProt Q9BRT3
# T6 sequence (whole entry): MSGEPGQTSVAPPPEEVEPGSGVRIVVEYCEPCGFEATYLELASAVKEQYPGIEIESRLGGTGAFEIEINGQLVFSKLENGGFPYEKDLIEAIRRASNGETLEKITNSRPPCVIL
# Summary of the method: as §1
# UniProt Q9BRX9 = target: T7, UniProt Q9BRX9
# T7 sequence (whole entry): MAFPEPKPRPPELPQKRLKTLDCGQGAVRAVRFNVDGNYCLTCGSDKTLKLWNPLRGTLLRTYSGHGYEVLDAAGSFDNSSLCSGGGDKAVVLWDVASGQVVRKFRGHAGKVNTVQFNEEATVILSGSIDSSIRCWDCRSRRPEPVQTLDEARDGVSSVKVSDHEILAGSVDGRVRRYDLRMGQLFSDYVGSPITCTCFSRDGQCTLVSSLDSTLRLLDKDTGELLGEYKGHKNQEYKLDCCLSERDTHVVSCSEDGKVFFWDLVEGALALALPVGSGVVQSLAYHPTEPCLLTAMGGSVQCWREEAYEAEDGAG
# Summary of the method: as §1
smiles,measurement,setting,value
Nc1ncnc2c1ncn2[C@@H]1O[C@H](COP(=O)(O)OP(=O)(O)OP(=O)(O)O)[C@@H](O)[C@H]1O [adenosine triphosphate],NP40-soluble protein abundance,[1]; concentration: 1mM,0.919 ± 0.064
same,NP40-soluble protein abundance,[1]; concentration: 2mM,0.976 ± 0.03
same,NP40-soluble protein abundance,[1]; concentration: 4mM,0.999 ± 0.081
same,NP40-soluble protein abundance,[1]; concentration: 6mM,0.981 ± 0.044
same,NP40-soluble protein abundance,[1]; concentration: 8mM,0.981 ± 0.13
same,NP40-soluble protein abundance,[1]; concentration: 10mM,0.967 ± 0.077
same,NP40-soluble protein abundance,[2]; concentration: 1mM,1.09 ± 0.12
same,NP40-soluble protein abundance,[2]; concentration: 2mM,1.15 ± 0.17
same,NP40-soluble protein abundance,[2]; concentration: 4mM,1.23 ± 0.27
same,NP40-soluble protein abundance,[2]; concentration: 6mM,1.2 ± 0.23
same,NP40-soluble protein abundance,[2]; concentration: 8mM,1.17 ± 0.26
same,NP40-soluble protein abundance,[2]; concentration: 10mM,1.22 ± 0.28
same,NP40-soluble protein abundance,UniProt Q99733-2; concentration: 1mM,0.915 ± 0.057
same,NP40-soluble protein abundance,UniProt Q99733-2; concentration: 2mM,0.958 ± 0.022
same,NP40-soluble protein abundance,UniProt Q99733-2; concentration: 4mM,0.916 ± 0.038
same,NP40-soluble protein abundance,UniProt Q99733-2; concentration: 6mM,0.973 ± 0.068
same,NP40-soluble protein abundance,UniProt Q99733-2; concentration: 8mM,0.926 ± 0.077
same,NP40-soluble protein abundance,UniProt Q99733-2; concentration: 10mM,0.949 ± 0.058
same,NP40-soluble protein abundance,[3]; concentration: 1mM,0.948 ± 0.1
same,NP40-soluble protein abundance,[3]; concentration: 2mM,0.92 ± 0.078
same,NP40-soluble protein abundance,[3]; concentration: 4mM,0.897 ± 0.048
same,NP40-soluble protein abundance,[3]; concentration: 6mM,0.895 ± 0.08
same,NP40-soluble protein abundance,[3]; concentration: 8mM,0.902 ± 0.065
same,NP40-soluble protein abundance,[3]; concentration: 10mM,0.913 ± 0.033
same,NP40-soluble protein abundance,UniProt Q9BQ61; concentration: 1mM,0.851 ± 0.094
same,NP40-soluble protein abundance,UniProt Q9BQ61; concentration: 2mM,0.905 ± 0.12
same,NP40-soluble protein abundance,UniProt Q9BQ61; concentration: 4mM,0.867 ± 0.12
same,NP40-soluble protein abundance,UniProt Q9BQ61; concentration: 6mM,0.897 ± 0.12
same,NP40-soluble protein abundance,UniProt Q9BQ61; concentration: 8mM,0.78 ± 0.08
same,NP40-soluble protein abundance,UniProt Q9BQ61; concentration: 10mM,0.806 ± 0.097
same,NP40-soluble protein abundance,UniProt Q9BRT3; concentration: 1mM,0.951 ± 0.051
same,NP40-soluble protein abundance,UniProt Q9BRT3; concentration: 2mM,0.908 ± 0.039
same,NP40-soluble protein abundance,UniProt Q9BRT3; concentration: 4mM,0.879 ± 0.022
same,NP40-soluble protein abundance,UniProt Q9BRT3; concentration: 6mM,0.963 ± 0.029
same,NP40-soluble protein abundance,UniProt Q9BRT3; concentration: 8mM,0.901 ± 0.031
same,NP40-soluble protein abundance,UniProt Q9BRT3; concentration: 10mM,0.843 ± 0.036
same,NP40-soluble protein abundance,UniProt Q9BRX9; concentration: 1mM,1.02 ± 0.082
same,NP40-soluble protein abundance,UniProt Q9BRX9; concentration: 2mM,0.999 ± 0.029
same,NP40-soluble protein abundance,UniProt Q9BRX9; concentration: 4mM,1.06 ± 0.021
same,NP40-soluble protein abundance,UniProt Q9BRX9; concentration: 6mM,0.993 ± 0.064
same,NP40-soluble protein abundance,UniProt Q9BRX9; concentration: 8mM,1 ± 0.043
same,NP40-soluble protein abundance,UniProt Q9BRX9; concentration: 10mM,1.08 ± 0.078

# Two neighbouring records from above, quoted:
smiles,measurement,setting,value
Nc1ncnc2c1ncn2[C@@H]1O[C@H](COP(=O)(O)OP(=O)(O)OP(=O)(O)O)[C@@H](O)[C@H]1O [adenosine triphosphate],NP40-soluble protein abundance,[2]; concentration: 2mM,1.15 ± 0.17
same,NP40-soluble protein abundance,[2]; concentration: 4mM,1.23 ± 0.27

# From the supplement of paper PMC6411743
